Results are given in words; binding and its absence hold for the method and conditions named. Binding seen in cells or lysates may run through a third protein. Some results given as binding are weak or reduced against the parent protein; the word gives no strength.
Key:
[1] = molecular target: cSFB-tagged RBPJ NTD (N-terminal domain, amino acids 1-178) (UniProt Q06330); experiment: co-IP (S beads) of Myc-tagged FBXO42 Kelch domain and cSFB-tagged RBPJ NTD in HEK293T cells, western blot
[2] = molecular target: T1, L3MBTL3 (lethal(3) malignant brain tumor-like protein 3) (UniProt Q96JM7); experiment: S-protein bead pull-down of cSFB-RBPJ from WT and FBXO42-KO HEK293T cells, immunoblot with endogenous antibodies
T1 sequence (looked up): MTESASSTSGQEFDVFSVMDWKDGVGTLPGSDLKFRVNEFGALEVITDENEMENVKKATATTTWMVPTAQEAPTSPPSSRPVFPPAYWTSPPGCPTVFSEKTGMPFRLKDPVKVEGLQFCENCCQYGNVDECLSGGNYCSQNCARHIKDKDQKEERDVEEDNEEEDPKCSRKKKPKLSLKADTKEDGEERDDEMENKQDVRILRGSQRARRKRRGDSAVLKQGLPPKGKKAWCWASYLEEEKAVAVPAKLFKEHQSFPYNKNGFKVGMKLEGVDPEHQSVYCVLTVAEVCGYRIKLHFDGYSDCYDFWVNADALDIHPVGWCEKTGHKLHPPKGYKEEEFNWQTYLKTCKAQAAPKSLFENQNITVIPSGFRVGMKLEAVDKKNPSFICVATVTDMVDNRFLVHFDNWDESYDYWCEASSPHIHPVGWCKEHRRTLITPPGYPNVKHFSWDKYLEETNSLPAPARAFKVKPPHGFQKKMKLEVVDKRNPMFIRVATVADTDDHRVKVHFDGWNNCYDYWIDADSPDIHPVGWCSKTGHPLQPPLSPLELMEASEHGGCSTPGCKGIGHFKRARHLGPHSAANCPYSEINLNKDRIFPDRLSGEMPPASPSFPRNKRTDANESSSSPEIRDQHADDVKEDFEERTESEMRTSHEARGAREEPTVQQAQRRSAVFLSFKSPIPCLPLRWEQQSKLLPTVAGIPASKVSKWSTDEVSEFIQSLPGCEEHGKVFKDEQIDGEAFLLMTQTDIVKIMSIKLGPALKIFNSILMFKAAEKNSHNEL

Protein sequences, listed by entry. Tags and fused reporters are not part of them. Lines headed by an entry give the natural chain unless they say otherwise; changes in a name come on top. Chains listed by the source or under a name are the forms on record and can include a tag or linker. Residues count along the entry.
UniProt Q06330: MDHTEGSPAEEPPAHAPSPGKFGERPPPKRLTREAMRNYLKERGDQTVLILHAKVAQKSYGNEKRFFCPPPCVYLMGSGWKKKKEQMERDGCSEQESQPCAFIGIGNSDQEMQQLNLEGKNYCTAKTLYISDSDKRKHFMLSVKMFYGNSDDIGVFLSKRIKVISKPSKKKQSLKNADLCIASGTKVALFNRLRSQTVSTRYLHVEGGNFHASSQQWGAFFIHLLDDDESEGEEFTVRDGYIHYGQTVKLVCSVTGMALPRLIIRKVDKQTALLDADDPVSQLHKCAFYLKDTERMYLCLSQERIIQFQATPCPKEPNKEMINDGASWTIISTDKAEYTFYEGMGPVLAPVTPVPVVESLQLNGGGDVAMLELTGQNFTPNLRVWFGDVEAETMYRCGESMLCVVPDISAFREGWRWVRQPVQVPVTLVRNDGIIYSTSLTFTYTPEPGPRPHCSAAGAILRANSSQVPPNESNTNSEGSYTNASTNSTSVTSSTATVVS
cSFB-tagged RBPJ NTD (N-terminal domain, amino acids 1-178): residues 1-178 of Q06330
UniProt Q6P3S6, residues 101-350: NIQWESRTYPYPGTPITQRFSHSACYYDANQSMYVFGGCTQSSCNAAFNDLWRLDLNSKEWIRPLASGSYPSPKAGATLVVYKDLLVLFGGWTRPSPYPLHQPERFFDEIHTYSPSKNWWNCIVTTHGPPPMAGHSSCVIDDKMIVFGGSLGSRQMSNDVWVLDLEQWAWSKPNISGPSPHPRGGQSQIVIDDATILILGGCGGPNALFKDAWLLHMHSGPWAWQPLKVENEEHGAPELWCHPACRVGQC

Substance	binding [1]	binding [2]
Myc-tagged FBXO42 Kelch domain (amino acids 101-350) (from UniProt Q6P3S6 101-350)	binds	–
cSFB-tagged RBPJ (recombination signal-binding protein of immunoglobulin kappa J region with C-terminal SFB tag) (from UniProt Q06330 1-500)	–	binds

Source: patent US20260023068A1, “USE OF A FBXO42 SPECIFIC INHIBITOR IN TREATING NOTCH SIGNALING-DEPENDENT DISEASE” (WESTLAKE UNIVERSITY, priority 2022, published 2026)
